Assay results published in the supplement of paper PMC10849652.
This is one part of the list.

Amino acid sequences for entries named in this document (tags omitted). A change or cut given only in a name is not applied to a line headed by its entry.
UniProt Q9BQC3: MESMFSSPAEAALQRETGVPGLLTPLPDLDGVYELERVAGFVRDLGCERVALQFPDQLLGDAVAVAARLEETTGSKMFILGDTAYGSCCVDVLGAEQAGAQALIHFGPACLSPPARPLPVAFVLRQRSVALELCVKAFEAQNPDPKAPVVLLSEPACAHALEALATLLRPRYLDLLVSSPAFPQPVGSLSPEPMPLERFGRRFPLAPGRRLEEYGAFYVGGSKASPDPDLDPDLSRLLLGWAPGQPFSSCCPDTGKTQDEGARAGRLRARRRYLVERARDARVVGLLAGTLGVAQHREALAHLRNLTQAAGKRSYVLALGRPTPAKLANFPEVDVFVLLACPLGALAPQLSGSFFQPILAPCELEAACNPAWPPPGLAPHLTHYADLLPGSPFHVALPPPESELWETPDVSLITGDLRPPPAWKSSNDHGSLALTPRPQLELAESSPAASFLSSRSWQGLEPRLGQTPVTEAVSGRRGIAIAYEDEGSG
UniProt Q8WWZ3: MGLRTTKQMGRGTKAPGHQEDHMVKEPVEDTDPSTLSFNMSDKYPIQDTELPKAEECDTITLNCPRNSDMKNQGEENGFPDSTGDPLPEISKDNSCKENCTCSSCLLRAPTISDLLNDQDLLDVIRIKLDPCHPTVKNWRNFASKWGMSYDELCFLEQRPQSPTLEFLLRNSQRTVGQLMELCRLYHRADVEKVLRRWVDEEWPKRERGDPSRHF
UniProt Q02487, whole entry, looked up: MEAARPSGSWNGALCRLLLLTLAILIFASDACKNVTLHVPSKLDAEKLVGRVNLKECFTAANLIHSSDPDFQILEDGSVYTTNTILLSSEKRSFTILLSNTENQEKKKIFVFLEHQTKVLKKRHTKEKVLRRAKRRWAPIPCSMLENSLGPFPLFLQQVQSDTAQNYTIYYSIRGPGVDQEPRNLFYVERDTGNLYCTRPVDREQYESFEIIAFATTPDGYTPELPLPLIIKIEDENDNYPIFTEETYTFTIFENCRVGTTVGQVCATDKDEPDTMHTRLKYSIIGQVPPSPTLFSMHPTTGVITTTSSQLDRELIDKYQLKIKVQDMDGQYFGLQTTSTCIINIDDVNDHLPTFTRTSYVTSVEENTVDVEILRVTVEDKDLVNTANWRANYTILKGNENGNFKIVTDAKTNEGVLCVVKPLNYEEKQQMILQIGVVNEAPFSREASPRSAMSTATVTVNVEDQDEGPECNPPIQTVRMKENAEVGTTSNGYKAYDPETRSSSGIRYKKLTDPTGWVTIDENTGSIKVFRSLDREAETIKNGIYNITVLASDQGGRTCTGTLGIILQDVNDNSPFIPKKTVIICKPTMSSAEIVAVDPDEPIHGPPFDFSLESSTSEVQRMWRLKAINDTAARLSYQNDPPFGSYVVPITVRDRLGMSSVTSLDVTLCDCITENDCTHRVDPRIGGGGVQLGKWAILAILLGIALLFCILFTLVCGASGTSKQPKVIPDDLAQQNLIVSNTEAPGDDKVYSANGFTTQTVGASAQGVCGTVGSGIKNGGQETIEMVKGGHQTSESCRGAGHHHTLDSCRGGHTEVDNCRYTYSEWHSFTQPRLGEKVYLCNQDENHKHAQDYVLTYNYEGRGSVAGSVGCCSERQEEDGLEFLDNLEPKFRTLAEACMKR
UniProt Q9Y6G9, whole entry, looked up: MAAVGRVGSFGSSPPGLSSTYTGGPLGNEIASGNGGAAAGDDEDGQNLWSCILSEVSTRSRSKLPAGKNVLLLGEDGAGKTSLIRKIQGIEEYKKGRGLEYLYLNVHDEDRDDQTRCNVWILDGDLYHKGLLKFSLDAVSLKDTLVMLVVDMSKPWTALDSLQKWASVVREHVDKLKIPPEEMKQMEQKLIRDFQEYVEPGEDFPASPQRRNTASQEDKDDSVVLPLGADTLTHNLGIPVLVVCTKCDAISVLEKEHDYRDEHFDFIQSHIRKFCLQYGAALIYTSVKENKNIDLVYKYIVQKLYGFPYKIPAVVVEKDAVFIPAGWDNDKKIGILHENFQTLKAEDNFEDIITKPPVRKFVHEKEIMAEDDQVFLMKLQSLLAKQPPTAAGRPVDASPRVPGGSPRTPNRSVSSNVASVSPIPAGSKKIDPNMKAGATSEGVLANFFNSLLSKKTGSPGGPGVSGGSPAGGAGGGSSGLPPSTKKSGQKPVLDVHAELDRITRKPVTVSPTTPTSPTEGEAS
UniProt O00429, whole entry, looked up: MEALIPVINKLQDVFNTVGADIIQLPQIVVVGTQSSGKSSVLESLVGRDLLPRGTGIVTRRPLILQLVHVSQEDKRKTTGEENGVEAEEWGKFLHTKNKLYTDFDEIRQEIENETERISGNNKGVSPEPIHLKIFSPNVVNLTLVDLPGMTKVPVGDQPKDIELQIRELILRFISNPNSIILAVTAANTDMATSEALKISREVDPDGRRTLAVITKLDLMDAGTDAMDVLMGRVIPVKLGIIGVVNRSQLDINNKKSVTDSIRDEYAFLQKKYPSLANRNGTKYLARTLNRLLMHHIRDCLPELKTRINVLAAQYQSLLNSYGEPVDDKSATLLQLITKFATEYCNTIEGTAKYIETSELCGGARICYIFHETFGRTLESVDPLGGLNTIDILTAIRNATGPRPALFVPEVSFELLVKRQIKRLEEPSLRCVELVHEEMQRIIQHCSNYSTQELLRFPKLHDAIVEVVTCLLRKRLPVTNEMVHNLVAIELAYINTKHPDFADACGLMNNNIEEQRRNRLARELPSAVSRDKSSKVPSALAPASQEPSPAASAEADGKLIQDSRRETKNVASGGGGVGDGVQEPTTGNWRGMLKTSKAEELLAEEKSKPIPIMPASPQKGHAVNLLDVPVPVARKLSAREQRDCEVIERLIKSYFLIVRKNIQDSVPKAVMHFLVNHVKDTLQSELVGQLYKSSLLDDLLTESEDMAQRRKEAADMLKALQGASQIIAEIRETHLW
UniProt P30084: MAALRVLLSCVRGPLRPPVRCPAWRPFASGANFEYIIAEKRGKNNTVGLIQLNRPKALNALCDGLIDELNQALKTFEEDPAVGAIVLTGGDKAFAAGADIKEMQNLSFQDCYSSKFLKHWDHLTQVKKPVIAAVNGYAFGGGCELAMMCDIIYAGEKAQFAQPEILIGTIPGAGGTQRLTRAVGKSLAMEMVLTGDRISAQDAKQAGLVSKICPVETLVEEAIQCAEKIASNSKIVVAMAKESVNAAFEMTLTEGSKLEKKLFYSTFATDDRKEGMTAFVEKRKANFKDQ
UniProt Q9UBS4: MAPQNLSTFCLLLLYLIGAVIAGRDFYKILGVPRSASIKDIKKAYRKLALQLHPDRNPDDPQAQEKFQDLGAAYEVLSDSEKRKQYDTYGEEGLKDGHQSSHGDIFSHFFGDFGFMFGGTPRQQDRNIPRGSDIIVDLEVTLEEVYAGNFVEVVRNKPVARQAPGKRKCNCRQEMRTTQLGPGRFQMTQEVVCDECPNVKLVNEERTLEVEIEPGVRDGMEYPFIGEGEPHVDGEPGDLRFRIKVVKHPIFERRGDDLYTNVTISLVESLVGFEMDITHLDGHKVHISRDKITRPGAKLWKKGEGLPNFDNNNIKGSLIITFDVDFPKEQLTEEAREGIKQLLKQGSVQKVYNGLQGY
UniProt Q92611: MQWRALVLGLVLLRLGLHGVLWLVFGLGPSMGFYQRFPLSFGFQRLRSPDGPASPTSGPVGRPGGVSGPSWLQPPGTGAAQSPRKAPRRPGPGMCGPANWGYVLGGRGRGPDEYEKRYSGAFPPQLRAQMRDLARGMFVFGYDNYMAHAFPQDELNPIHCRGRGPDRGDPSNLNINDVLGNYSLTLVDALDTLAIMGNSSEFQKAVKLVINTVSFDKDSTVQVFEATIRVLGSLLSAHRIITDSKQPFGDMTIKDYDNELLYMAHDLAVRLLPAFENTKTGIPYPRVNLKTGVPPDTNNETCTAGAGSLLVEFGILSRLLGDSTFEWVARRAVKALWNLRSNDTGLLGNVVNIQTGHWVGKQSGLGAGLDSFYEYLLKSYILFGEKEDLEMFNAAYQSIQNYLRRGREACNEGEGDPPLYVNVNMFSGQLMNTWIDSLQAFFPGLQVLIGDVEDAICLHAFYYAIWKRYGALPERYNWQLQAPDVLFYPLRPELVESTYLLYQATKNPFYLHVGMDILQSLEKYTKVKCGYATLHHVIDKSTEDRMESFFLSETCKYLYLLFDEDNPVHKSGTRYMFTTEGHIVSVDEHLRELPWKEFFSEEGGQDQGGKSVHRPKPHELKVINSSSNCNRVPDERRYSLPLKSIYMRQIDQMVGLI
UniProt Q9NP97, whole entry, looked up: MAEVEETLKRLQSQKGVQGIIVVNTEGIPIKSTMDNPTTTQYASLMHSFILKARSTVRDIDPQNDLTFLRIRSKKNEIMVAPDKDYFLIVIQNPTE
UniProt Q16610: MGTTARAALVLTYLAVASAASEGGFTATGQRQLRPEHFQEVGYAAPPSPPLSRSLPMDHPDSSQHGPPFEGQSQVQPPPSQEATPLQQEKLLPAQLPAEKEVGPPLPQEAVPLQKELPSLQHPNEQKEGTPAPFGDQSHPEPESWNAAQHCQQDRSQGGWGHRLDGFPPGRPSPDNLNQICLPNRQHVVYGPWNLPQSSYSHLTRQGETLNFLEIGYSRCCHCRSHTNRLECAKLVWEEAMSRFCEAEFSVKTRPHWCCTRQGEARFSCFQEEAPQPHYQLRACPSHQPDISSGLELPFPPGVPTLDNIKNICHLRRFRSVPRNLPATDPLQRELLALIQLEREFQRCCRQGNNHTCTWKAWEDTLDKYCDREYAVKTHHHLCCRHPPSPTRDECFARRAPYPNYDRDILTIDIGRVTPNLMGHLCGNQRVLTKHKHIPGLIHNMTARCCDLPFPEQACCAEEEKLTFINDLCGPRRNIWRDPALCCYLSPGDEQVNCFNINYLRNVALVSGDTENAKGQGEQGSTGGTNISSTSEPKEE
UniProt Q9UKB3: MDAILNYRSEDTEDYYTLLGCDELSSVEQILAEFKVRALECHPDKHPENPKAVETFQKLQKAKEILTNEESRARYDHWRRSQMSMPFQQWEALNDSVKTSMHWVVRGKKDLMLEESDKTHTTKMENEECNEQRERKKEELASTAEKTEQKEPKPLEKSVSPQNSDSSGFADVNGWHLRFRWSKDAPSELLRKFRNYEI
UniProt P33316: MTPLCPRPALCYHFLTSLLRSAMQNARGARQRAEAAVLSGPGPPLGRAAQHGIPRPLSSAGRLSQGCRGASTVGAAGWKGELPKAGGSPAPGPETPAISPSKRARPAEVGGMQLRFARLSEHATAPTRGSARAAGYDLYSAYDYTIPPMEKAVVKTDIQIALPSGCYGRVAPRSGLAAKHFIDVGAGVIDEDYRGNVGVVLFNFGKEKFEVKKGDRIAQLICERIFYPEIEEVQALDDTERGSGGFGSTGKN
UniProt Q96FJ2, whole entry, looked up: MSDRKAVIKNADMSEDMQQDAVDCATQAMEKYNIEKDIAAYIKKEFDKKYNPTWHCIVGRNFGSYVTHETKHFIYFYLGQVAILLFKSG
UniProt Q9BZQ6: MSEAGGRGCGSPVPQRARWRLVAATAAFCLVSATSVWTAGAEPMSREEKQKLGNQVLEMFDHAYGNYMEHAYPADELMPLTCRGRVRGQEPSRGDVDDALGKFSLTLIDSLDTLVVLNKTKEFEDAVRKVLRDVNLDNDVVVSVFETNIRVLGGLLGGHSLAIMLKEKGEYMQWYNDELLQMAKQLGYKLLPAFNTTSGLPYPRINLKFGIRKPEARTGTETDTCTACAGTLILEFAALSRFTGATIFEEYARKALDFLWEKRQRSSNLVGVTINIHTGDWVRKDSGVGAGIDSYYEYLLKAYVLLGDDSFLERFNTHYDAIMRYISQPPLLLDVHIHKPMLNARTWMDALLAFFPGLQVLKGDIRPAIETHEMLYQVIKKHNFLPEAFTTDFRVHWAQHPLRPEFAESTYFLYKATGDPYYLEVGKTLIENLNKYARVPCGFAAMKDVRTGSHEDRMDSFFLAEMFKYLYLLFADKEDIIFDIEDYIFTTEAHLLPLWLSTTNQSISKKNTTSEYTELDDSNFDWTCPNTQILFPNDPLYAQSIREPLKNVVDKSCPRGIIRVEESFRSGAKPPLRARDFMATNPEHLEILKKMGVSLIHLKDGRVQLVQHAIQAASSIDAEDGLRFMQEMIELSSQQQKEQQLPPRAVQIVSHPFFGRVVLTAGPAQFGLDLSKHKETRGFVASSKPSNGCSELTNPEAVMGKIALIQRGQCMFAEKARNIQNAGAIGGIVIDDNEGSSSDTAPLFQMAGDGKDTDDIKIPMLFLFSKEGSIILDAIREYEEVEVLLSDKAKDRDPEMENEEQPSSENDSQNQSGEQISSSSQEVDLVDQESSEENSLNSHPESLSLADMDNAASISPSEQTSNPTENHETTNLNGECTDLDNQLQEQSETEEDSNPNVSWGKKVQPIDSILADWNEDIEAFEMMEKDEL
UniProt O95620: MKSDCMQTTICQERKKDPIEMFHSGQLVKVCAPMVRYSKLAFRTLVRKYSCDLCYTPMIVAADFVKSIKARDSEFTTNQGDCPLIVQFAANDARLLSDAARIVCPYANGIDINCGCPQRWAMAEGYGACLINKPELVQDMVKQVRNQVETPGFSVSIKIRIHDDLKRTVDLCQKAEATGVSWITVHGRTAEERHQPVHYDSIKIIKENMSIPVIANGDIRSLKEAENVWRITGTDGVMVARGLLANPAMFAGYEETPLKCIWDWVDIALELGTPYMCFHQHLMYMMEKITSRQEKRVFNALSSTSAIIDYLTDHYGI

compound: CCn1cc(-c2ccnc3[nH]c(-c4cccc(CN(C)C)c4)cc23)c(-c2ccc(NC(=O)N(C)C)cc2)n1; test: log2 fold change, soluble protein after heating vs DMSO (PISA); higher = thermal stabilisation; K562 cells, 10 uM, 30 min; active = over 0.2 and 3.5 SD of the protein, either way, in both replicates (recomputed)
Outline: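 Soluble protein was defined as the supernatant after 21,000xg for 90 min. It came from K562 cells at 2×10^6 cells/mL given 10 μM compound for 30 min, heated in aliquots for 3 min across 48°C-58°C, pooled, and extracted in PBS with 0.5% NP-40 at 4°C, and was quantified by TMTpro 16plex LC-MS/MS with equalised channel sums. Thermal stability against control samples, from duplicates, is reported as log2 fold change.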

log2 fold change, inactive:
DPH2 (UniProt Q9BQC3) 0.07
DPY19L4 (UniProt Q7Z388) -0.049
DNAJC8 (UniProt O75937) -0.004
ECSIT (UniProt Q9BQ95) 0.076
EDARADD (UniProt Q8WWZ3) 0.002
DSTN (UniProt P60981) -0.056
ECI2 (UniProt O75521) -0.014
DSC2 (UniProt Q02487) -0.421
DNAJA3 (UniProt Q96EY1) -0.019
DNAJC21 isoform 3 (UniProt Q5F1R6) -0.012
DYNC1LI1 (UniProt Q9Y6G9) -0.041
DNM1L isoform 6 (UniProt O00429) -0.036
ECHS1 (UniProt P30084) -0.131
DNAJB11 (UniProt Q9UBS4) 0.012
EDEM1 (UniProt Q92611) -0.077
DYNLRB1 (UniProt Q9NP97) 0.092
DOCK11 (UniProt Q5JSL3) -0.009
DUSP23 (UniProt Q9BVJ7) -0.033
ECM1 isoform 4 (UniProt Q16610) 0.007
DPP3 (UniProt Q9NY33) -0.113
DPP9 isoform 2 (UniProt Q86TI2) -0.103
DNAJC12 (UniProt Q9UKB3) -0.001
DUSP3 (UniProt P51452) -0.073
DUT (UniProt P33316) -0.015
DPH6 (UniProt Q7L8W6) -0.102
DYNLL2 (UniProt Q96FJ2) -0.019
DNAJC10 (UniProt Q8IXB1) 0.062
DYNLL1 (UniProt P63167) -0.106
DNAJC6 isoform 2 (UniProt O75061) -0.003
EDEM3 (UniProt Q9BZQ6) -0.002
DUS4L (UniProt O95620) -0.025
DNAJC11 (UniProt Q9NVH1) -0.061
DNAJC17 (UniProt Q9NVM6) -0.055

Fetched one by one from the entries so far, two records:
log2 fold change, inactive:
DNAJC12 (UniProt Q9UKB3) -0.001
EDEM3 (UniProt Q9BZQ6) -0.002
